# Results are given in words; binding and its absence hold for the method and conditions named.
# Sequences of proteins named here, by UniProt entry; tags and fusion partners are left off. Residues count along the entry.
# UniProt E9Q7P9, residues 21-1152: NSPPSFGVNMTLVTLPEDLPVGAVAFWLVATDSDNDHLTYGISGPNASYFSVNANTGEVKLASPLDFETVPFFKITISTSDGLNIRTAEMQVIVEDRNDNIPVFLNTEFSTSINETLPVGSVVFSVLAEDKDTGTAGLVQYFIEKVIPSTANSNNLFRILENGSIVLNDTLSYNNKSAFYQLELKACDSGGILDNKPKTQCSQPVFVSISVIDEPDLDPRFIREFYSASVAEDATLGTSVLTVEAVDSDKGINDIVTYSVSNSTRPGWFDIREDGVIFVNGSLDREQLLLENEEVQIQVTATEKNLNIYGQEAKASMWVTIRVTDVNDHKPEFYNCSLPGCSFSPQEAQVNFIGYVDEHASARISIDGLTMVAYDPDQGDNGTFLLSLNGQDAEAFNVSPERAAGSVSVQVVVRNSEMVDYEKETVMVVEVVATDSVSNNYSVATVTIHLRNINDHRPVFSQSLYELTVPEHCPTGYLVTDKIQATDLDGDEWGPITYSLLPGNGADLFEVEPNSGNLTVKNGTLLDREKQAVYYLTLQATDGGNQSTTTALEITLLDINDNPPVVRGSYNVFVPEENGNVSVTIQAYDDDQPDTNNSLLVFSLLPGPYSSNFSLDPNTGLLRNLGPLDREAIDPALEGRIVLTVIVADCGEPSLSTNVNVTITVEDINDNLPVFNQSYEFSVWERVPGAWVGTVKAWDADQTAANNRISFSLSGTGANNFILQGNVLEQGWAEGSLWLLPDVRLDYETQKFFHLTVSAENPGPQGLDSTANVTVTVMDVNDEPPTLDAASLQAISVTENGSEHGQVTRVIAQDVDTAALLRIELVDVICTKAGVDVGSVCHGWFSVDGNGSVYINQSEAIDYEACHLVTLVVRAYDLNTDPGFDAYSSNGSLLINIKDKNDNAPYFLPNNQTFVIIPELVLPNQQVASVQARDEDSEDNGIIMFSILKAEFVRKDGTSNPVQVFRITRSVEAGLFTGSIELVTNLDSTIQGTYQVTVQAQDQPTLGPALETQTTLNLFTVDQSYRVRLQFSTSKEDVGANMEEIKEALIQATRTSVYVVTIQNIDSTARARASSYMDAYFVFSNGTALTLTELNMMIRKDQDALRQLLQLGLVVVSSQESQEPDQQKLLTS
# Target: mm PCDH24 EC1-MAD10Fc (mouse) (UniProt E9Q7P9)
# Test: bead aggregation assay
substance,measurement,value
mm PCDH24 EC1-MAD10Fc (from UniProt E9Q7P9 21-1152) (Fc fusion),binding,no binding
